Measurements as given in US9758788B2, “Mutagenesis of plants for overproduction of selective estrogen receptor modulators” (Naprogenix, Inc., priority 2014, dated 2017).
At least one compound was matched to its structure with a doubt left.

System: transgenic hDAT 1°HRs
Assay: Toxicity of DA-ergic toxins, trypan blue staining, transgenic hairy roots
Conditions: compared with the other toxins
Description: Trypan blue staining for toxicity was quantified using ImageJ software. […] Since MPTP is converted to the its cytotoxic metabolite, MPP+, by oxidases, biosynthesis of oxidase inhibitors would also confer a survival advantage if MPTP were chosen as a selection agent (monoamine oxidase inhibitors prevent MPTP toxicity in SH-SY5Y neuroblastoma cells).

Fc1ccc(C(OCCN2CCN(CCCc3ccccc3)CC2)c2ccc(F)cc2)cc1 [GBR12909]
inhibition of toxicity due to 6-OHDA: less effective
